{"source": "PubChem BioAssay AID1259308 (NCATS, 2017)", "assay": "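Genes whose loss raises luciferase production in HEK293 cells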 (primary screen)", "system": "human HEK293 embryonic kidney cells stably expressing firefly luciferase (HEK-CMV-Luc2-Hygro)", "knock-down reagent": "single siRNA against human genes, 0.8 pmol siRNA per well", "duration": "72 h", "detection": "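Luciferase light (ONE-Glo) measured on one replicate plate set and viability (CellTiter-Glo) on the other, scaled to a negative control siRNA, with robust z-scores and luciferase per cell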", "direction": "total luciferase, z-score and total luciferase, % of control: higher = more reporter protein produced", "call rule": "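An siRNA counts as active if its total luciferase robust z-score exceeds 3; genes with two or more such siRNAs out of three were retested with fresh siRNAs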", "calls": "active = raised luciferase; inactive = no rise", "note": "Here is one part, drawn at random, of about 59,000 reagents tested. About 1,510 of them (2.6%) were called active. 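Calls use total luciferase alone and ignore viability, so some active siRNAs may act by altering cell number.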 Not all columns of the deposit are shown."}
{"target": "RPP21", "PubChem SID": "SID160724551", "total luciferase, z-score": 1.55, "total luciferase, % of control": 113, "call": "inactive"}
{"target": "RPP21", "PubChem SID": "SID160749728", "total luciferase, z-score": -0.13, "total luciferase, % of control": 79.3, "call": "inactive"}
{"target": "RPP21", "PubChem SID": "SID160749731", "total luciferase, z-score": 1.46, "total luciferase, % of control": 111, "call": "inactive"}
{"target": "GCK", "PubChem SID": "SID160769965", "total luciferase, z-score": 0.35, "total luciferase, % of control": 88.8, "call": "inactive"}
{"target": "GCK", "PubChem SID": "SID160769976", "total luciferase, z-score": 1.25, "total luciferase, % of control": 107, "call": "inactive"}
{"target": "GCK", "PubChem SID": "SID160769987", "total luciferase, z-score": -0.214, "total luciferase, % of control": 77.6, "call": "inactive"}
{"target": "PRAG1", "PubChem SID": "SID160759506", "total luciferase, z-score": 0.0788, "total luciferase, % of control": 83.5, "call": "inactive"}
{"target": "PRAG1", "PubChem SID": "SID160759507", "total luciferase, z-score": 0.971, "total luciferase, % of control": 101, "call": "inactive"}
{"target": "PRAG1", "PubChem SID": "SID160759508", "total luciferase, z-score": -1.6, "total luciferase, % of control": 50.1, "call": "inactive"}
{"target": "INPP5B", "PubChem SID": "SID160775869", "total luciferase, z-score": 0.566, "total luciferase, % of control": 93.1, "call": "inactive"}
{"target": "INPP5B", "PubChem SID": "SID160775870", "total luciferase, z-score": -0.0685, "total luciferase, % of control": 80.5, "call": "inactive"}
{"target": "INPP5B", "PubChem SID": "SID160775871", "total luciferase, z-score": 1.28, "total luciferase, % of control": 107, "call": "inactive"}
{"target": "ST7", "PubChem SID": "SID160719524", "total luciferase, z-score": -0.472, "total luciferase, % of control": 72.5, "call": "inactive"}
{"target": "ST7", "PubChem SID": "SID160719525", "total luciferase, z-score": 2.56, "total luciferase, % of control": 133, "call": "inactive"}
{"target": "ST7", "PubChem SID": "SID160719526", "total luciferase, z-score": 0.122, "total luciferase, % of control": 84.3, "call": "inactive"}
{"target": "USP33", "PubChem SID": "SID160735279", "total luciferase, z-score": -0.188, "total luciferase, % of control": 78.2, "call": "inactive"}
{"target": "USP33", "PubChem SID": "SID160735280", "total luciferase, z-score": -2.38, "total luciferase, % of control": 34.6, "call": "inactive"}
{"target": "USP33", "PubChem SID": "SID160735281", "total luciferase, z-score": -1.8, "total luciferase, % of control": 46.2, "call": "inactive"}
{"target": "CCK", "PubChem SID": "SID160737523", "total luciferase, z-score": -0.648, "total luciferase, % of control": 69, "call": "inactive"}
{"target": "CCK", "PubChem SID": "SID160737534", "total luciferase, z-score": 3.07, "total luciferase, % of control": 143, "call": "active"}
{"target": "CCK", "PubChem SID": "SID160737545", "total luciferase, z-score": 0.496, "total luciferase, % of control": 91.7, "call": "inactive"}
{"target": "FSD2", "PubChem SID": "SID160756096", "total luciferase, z-score": -0.165, "total luciferase, % of control": 78.6, "call": "inactive"}
{"target": "FSD2", "PubChem SID": "SID160756097", "total luciferase, z-score": -0.786, "total luciferase, % of control": 66.3, "call": "inactive"}
{"target": "FSD2", "PubChem SID": "SID160756098", "total luciferase, z-score": -0.546, "total luciferase, % of control": 71, "call": "inactive"}
{"target": "ZNF554", "PubChem SID": "SID160755155", "total luciferase, z-score": 0.23, "total luciferase, % of control": 86.5, "call": "inactive"}
{"target": "ZNF554", "PubChem SID": "SID160755156", "total luciferase, z-score": 0.53, "total luciferase, % of control": 92.4, "call": "inactive"}
{"target": "ZNF554", "PubChem SID": "SID160755157", "total luciferase, z-score": 0.271, "total luciferase, % of control": 87.3, "call": "inactive"}
{"target": "HJURP", "PubChem SID": "SID160743625", "total luciferase, z-score": 0.247, "total luciferase, % of control": 86.8, "call": "inactive"}
{"target": "HJURP", "PubChem SID": "SID160743626", "total luciferase, z-score": 0.249, "total luciferase, % of control": 86.8, "call": "inactive"}
{"target": "HJURP", "PubChem SID": "SID160743627", "total luciferase, z-score": 0.802, "total luciferase, % of control": 97.8, "call": "inactive"}
{"target": "GRIN3B", "PubChem SID": "SID160755424", "total luciferase, z-score": -0.559, "total luciferase, % of control": 70.8, "call": "inactive"}
{"target": "GRIN3B", "PubChem SID": "SID160755425", "total luciferase, z-score": -1.81, "total luciferase, % of control": 45.8, "call": "inactive"}
{"target": "GRIN3B", "PubChem SID": "SID160755426", "total luciferase, z-score": 1.5, "total luciferase, % of control": 112, "call": "inactive"}
{"target": "EFNA2", "PubChem SID": "SID160723740", "total luciferase, z-score": 0.368, "total luciferase, % of control": 89.2, "call": "inactive"}
{"target": "EFNA2", "PubChem SID": "SID160723742", "total luciferase, z-score": -0.675, "total luciferase, % of control": 68.5, "call": "inactive"}
{"target": "EFNA2", "PubChem SID": "SID160730744", "total luciferase, z-score": -0.618, "total luciferase, % of control": 69.6, "call": "inactive"}
{"target": "SLC10A3", "PubChem SID": "SID160719788", "total luciferase, z-score": -0.676, "total luciferase, % of control": 68.4, "call": "inactive"}
{"target": "SLC10A3", "PubChem SID": "SID160719789", "total luciferase, z-score": -1.6, "total luciferase, % of control": 50, "call": "inactive"}
{"target": "SLC10A3", "PubChem SID": "SID160731979", "total luciferase, z-score": -2.32, "total luciferase, % of control": 35.7, "call": "inactive"}
{"target": "HOXB2", "PubChem SID": "SID160775192", "total luciferase, z-score": -0.65, "total luciferase, % of control": 69, "call": "inactive"}
{"target": "HOXB2", "PubChem SID": "SID160775193", "total luciferase, z-score": -0.146, "total luciferase, % of control": 79, "call": "inactive"}
{"target": "HOXB2", "PubChem SID": "SID160775194", "total luciferase, z-score": -0.055, "total luciferase, % of control": 80.8, "call": "inactive"}

Records listed above with an active call, once more:
{"target": "CCK", "PubChem SID": "SID160737534", "total luciferase, z-score": 3.07, "total luciferase, % of control": 143, "call": "active"}
